Data as given in PubChem BioAssay AID1259327 (Drosophila RNAi Screening Center, 2017).
Here is one part, drawn at random, of about 3,100 reagents tested. In the full data, 378 (12%) got an active call. 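Hits include both directions; z-score sign shows ATP rise or fall; raw luminescence values are not plate-normalised.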 Reagents against one gene are numbered here. The record does not give: the amount of reagent.

Screen: 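Baseline ATP after transmembrane-protein gene knock-down with water vehicle only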
Cell system: Drosophila S2R+ cells
Reagent: long dsRNA against Drosophila genes
Duration: 5 days (water added on day 4, read one day later)
Challenge: water added as vehicle, no metal, one day before read-out
Read-out: 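Luciferase ATP signal per well, normalised to plate mean, duplicate average converted to z-score across plates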
Reading the numbers: ATP z-score: higher = more total ATP than typical wells; ATP luminescence: higher = more total ATP
Active means: 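Called active when the ATP z-score exceeds 1.5 or falls below -1.5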
Calls: active = hit: ATP up or down; inactive = no clear ATP change

With ste24a (GeneID 36908) #1, how do the results read?
ATP z-score, duplicate mean: 0.382; ATP luminescence, replicate 1 (RLU): 7.30e5; ATP luminescence, replicate 2 (RLU): 8.15e5; call: inactive

What is on record for ste24a (GeneID 36908) #2?
ATP z-score, duplicate mean: 0.913; ATP luminescence, replicate 1 (RLU): 7.49e5; ATP luminescence, replicate 2 (RLU): 1.07e6; call: inactive

What is on record for RFeSP (GeneID 44390) #1?
ATP z-score, duplicate mean: -3.07; ATP luminescence, replicate 1 (RLU): 3.96e5; ATP luminescence, replicate 2 (RLU): 3.82e5; call: active

What did the screen give for RFeSP (GeneID 44390) #2?
ATP z-score, duplicate mean: -2.79; ATP luminescence, replicate 1 (RLU): 4.45e5; ATP luminescence, replicate 2 (RLU): 5.08e5; call: active

For CG33337 (GeneID 2768678) #1, what does the deposit list?
ATP z-score, duplicate mean: 2.49; ATP luminescence, replicate 1 (RLU): 8.58e5; ATP luminescence, replicate 2 (RLU): 9.81e5; call: active

How did the screen score CG33337 (GeneID 2768678) #2?
ATP z-score, duplicate mean: 0.67; ATP luminescence, replicate 1 (RLU): 5.28e5; ATP luminescence, replicate 2 (RLU): 4.93e5; call: inactive

With bumpel (GeneID 41368), what was measured?
ATP z-score, duplicate mean: 1.23; ATP luminescence, replicate 1 (RLU): 3.03e5; ATP luminescence, replicate 2 (RLU): 1.03e6; call: inactive

With CG17751 (GeneID 42336) #1, what does the deposit list?
ATP z-score, duplicate mean: 0.31; ATP luminescence, replicate 1 (RLU): 5.44e5; ATP luminescence, replicate 2 (RLU): 6.69e5; call: inactive

For CG17751 (GeneID 42336) #2, what does the deposit list?
ATP z-score, duplicate mean: -0.341; ATP luminescence, replicate 1 (RLU): 8.15e5; ATP luminescence, replicate 2 (RLU): 7.51e5; call: inactive

Which result is listed for CG9664 (GeneID 33540)?
ATP z-score, duplicate mean: -0.286; ATP luminescence, replicate 1 (RLU): 4.83e5; ATP luminescence, replicate 2 (RLU): 4.33e5; call: inactive

How did the screen score AstA-R1 (GeneID 44126) #1?
ATP z-score, duplicate mean: 0.517; ATP luminescence, replicate 1 (RLU): 6.12e5; ATP luminescence, replicate 2 (RLU): 7.21e5; call: inactive

What is on record for AstA-R1 (GeneID 44126) #2?
ATP z-score, duplicate mean: -0.952; ATP luminescence, replicate 1 (RLU): 5.37e5; ATP luminescence, replicate 2 (RLU): 7.45e5; call: inactive

With Osi16 (GeneID 318801), how do the results read?
ATP z-score, duplicate mean: -0.402; ATP luminescence, replicate 1 (RLU): 5.24e5; ATP luminescence, replicate 2 (RLU): 5.67e5; call: inactive

Which result is listed for Tim17b2 (GeneID 44381)?
ATP z-score, duplicate mean: -0.294; ATP luminescence, replicate 1 (RLU): 8.05e5; ATP luminescence, replicate 2 (RLU): 7.71e5; call: inactive

For Sec61alpha (GeneID 33905), what does the deposit list?
ATP z-score, duplicate mean: 2.36; ATP luminescence, replicate 1 (RLU): 6.78e5; ATP luminescence, replicate 2 (RLU): 6.08e5; call: active

With trpl (GeneID 36003) #1, what does the deposit list?
ATP z-score, duplicate mean: -1.17; ATP luminescence, replicate 1 (RLU): 4.93e5; ATP luminescence, replicate 2 (RLU): 5.34e5; call: inactive

How did the screen score trpl (GeneID 36003) #2?
ATP z-score, duplicate mean: -1.25; ATP luminescence, replicate 1 (RLU): 5.26e5; ATP luminescence, replicate 2 (RLU): 4.21e5; call: inactive

For Tsp42En (GeneID 35624), what does the deposit list?
ATP z-score, duplicate mean: 0.222; ATP luminescence, replicate 1 (RLU): 6.08e5; ATP luminescence, replicate 2 (RLU): 6.72e5; call: inactive

With Prip (GeneID 36237) #1, how do the results read?
ATP z-score, duplicate mean: 0.488; ATP luminescence, replicate 1 (RLU): 7.64e5; ATP luminescence, replicate 2 (RLU): 8.03e5; call: inactive

With Prip (GeneID 36237) #2, how do the results read?
ATP z-score, duplicate mean: -1.19; ATP luminescence, replicate 1 (RLU): 9.82e5; ATP luminescence, replicate 2 (RLU): 1.14e6; call: inactive

With CG6696 (GeneID 32856) #1, what was measured?
ATP z-score, duplicate mean: -0.252; ATP luminescence, replicate 1 (RLU): 6.83e5; ATP luminescence, replicate 2 (RLU): 7.49e5; call: inactive

With CG6696 (GeneID 32856) #2, what was measured?
ATP z-score, duplicate mean: 1.4; ATP luminescence, replicate 1 (RLU): 9.97e5; ATP luminescence, replicate 2 (RLU): 1.05e6; call: inactive

For CG1265 (GeneID 38517) #1, what does the deposit list?
ATP z-score, duplicate mean: -0.83; ATP luminescence, replicate 1 (RLU): 8.03e5; ATP luminescence, replicate 2 (RLU): 7.72e5; call: inactive

With CG1265 (GeneID 38517) #2, how do the results read?
ATP z-score, duplicate mean: 0.951; ATP luminescence, replicate 1 (RLU): 4.99e5; ATP luminescence, replicate 2 (RLU): 5.32e5; call: inactive

Limited to “ATP luminescence, replicate 2 (RLU)” (2 entries from above):
AstA-R1 (GeneID 44126) #2 = 7.45e5
Osi16 (GeneID 318801) = 5.67e5
